# Results reported in US20230211344.
# For at least one entry, the source does not settle the construct or the ends of the probe. For part of these data: Weaker means in comparison with the reference protein, sequence or condition of that experiment.
# Tests used:
# [1] = system: IgE kappa (clone AbD18705_IgE); assay: binding assay; conditions: micro free-flow electrophoresis with single-molecule confocal counting; 40 nM IgE + 50 pM aptamer gave about 21.7 pM complex (20.5 pM also stated); 10 mM HEPES pH 7.4; purified recombinant protein; protein details: Bio-Rad, clone AbD18705_IgE; label: 5'-Atto488; single-stranded DNA; cited from earlier work
# [2] = biological target: alpha-synuclein (fibrils) (UniProt P37840); assay: binding assay; conditions: purified recombinant protein, single-stranded DNA
Sequence,binding result [1],"binding result ([2]; CITED Tsukakoshi et al. 2012, approximate Kd for fibrillar form)","binding result ([2]; micro free-flow electrophoresis at 80 V with single-molecule counting, 10 nM aptamer, bound probe 18.7 +/- 2.3 pM, fibril binding sites 1.0-1.9 nM assuming literature Kd)"
TGGGGCACGTTTATCCGTCCCTCCTAGTGGCGTGCCCC [IgE aptamer probe],binds,,
TTTTGCCTGTGGTGTTGGGGCGGGTGCG [alpha-synuclein aptamer probe],,binds more weakly,binds
